Reference: patent US20080200416A1
No constants are given. Whether binding was seen depends on the method and setting. In cells and extracts the contact can be indirect. Some entries that bind do so weakly or less than the wild type.

Protein sequences, listed by entry. Tags and fused reporters are not part of them. Residues count along the entry.
UniProt P06240, residues 2-509: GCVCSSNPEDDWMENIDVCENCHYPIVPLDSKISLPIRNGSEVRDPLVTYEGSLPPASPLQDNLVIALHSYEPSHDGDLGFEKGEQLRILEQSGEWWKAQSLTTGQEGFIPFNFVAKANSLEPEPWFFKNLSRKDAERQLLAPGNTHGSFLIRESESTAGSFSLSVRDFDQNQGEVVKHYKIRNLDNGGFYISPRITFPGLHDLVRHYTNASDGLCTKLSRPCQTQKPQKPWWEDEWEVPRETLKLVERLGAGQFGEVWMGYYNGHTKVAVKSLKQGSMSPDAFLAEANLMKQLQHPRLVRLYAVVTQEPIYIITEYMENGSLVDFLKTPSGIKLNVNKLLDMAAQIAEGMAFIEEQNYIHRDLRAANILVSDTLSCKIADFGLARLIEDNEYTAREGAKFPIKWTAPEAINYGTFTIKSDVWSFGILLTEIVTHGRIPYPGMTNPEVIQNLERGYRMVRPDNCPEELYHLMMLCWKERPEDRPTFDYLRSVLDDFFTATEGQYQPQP
UniProt P29351: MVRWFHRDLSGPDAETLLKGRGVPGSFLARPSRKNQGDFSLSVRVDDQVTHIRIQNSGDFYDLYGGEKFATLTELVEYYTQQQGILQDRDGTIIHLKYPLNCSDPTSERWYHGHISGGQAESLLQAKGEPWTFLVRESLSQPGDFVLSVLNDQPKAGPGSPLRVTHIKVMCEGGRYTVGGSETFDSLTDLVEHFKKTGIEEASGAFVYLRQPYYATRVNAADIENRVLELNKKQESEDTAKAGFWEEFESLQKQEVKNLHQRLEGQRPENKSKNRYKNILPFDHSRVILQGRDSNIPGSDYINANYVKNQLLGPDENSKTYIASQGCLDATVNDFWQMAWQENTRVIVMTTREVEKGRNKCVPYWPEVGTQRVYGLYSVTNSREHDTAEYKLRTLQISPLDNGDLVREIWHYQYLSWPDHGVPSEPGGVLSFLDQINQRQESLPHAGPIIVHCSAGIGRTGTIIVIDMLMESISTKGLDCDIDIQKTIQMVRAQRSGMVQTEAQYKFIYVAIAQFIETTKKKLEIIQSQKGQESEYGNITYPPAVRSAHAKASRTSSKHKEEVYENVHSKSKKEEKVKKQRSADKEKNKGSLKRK

Columns and labels:
[1] = target: Lck (mouse) (UniProt P06240); assay: co-immunoprecipitation with anti-Lck, control against miR-181a T cell blasts
[2] = target: Lck (mouse) (UniProt P06240); assay: co-immunoprecipitation with anti-Lck from 5C.C7 T cell lysates, Western blot

Question: Which results are given for “SHP-1 (from UniProt P29351 1-595) (enzyme)”?
Answer: binding [1]: binds; binding [2]: binds
